Some of the results follow.

The chains behind the UniProt entries cited, without tags or fusion partners.
UniProt Q0JBA9, entry or part of it: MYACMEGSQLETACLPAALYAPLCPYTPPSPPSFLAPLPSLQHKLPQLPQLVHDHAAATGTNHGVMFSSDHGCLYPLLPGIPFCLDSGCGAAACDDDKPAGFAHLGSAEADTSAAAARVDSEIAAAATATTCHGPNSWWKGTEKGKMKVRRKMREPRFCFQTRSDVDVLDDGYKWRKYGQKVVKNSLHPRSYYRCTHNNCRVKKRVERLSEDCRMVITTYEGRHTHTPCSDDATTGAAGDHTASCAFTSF

The target in the test is OsWRKY34 (Oryza sativa, UniProt Q0JBA9 1-250). Nature of the test: protein-binding microarray (RPBM); PBS, 2% BSA, 51.3 ng/ul salmon testes DNA, 50 uM zinc acetate, 200 nM TF, 25 C, 1 h; high values mean tight binding. The following applies: protein: recombinant; tags: N-terminal polyhistidine and DsRed monomer fusion (pET32a); label: CyDye5-dUTP incorporated in the synthesized complementary strand; 3' TTTTT single-stranded linker to array surface; dsDNA, one strand shown. In a few lines: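 Transcription factors, each fused N-terminally to a polyhistidine tag and DsRed, were expressed in E. coli BL21-CodonPlus and purified on Ni–NTA. A custom Agilent array was made double-stranded by primer extension with Cy5-dUTP and blocked with 2% BSA. It was incubated with 200 nM protein in PBS, 2% BSA, salmon testes DNA and 50 µM zinc acetate at 25 °C for 1 h, then washed. The binding signal is per-feature fluorescence intensity (arbitrary units) read on an Axon 4000B scanner.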
Take “GTGTGTTTTGAGTGTTAGTTTTCGACTATCATGTCTGCTTCGGAGTCACCTAGTGCAG”: the binding signal is 10800 fluorescence intensity (a.u.).
In the case of “TTCTGGTTCTTGGACTCCCTGTTCTTGGTTCCTGCATTTCCGGAGTCACCTAGTGCAG” it was 14200 fluorescence intensity (a.u.).
For the sequence “TAACTTACATATATGCCCCACATTTCTTGTTTTAATTTTTCGGAGTCACCTAGTGCAG”, the binding signal was 11400 fluorescence intensity (a.u.).
The same measure for “TCAGGCTCAACTGTAGCTCATGGTCTCATCCCAGGGAGATCGGAGTCACCTAGTGCAG”: 8240 fluorescence intensity (a.u.); for “TGCTTGTGGACTACCCTTTCTTCTTCTGTTATTACCAGGTCGGAGTCACCTAGTGCAG”: 10800 fluorescence intensity (a.u.); for “CCTCGTCCAGGATCGCCATCTCCTGACCCACCGCGCGCCCCGGAGTCACCTAGTGCAG”: 8130 fluorescence intensity (a.u.).
With “CATGTTGACTCTGTTTAATTCCACATCGTCTTCCTTGATCCGGAGTCACCTAGTGCAG”, the binding signal was 12800 fluorescence intensity (a.u.).
The same measure for “ACGACTCAGCCCCACCGCGCCGCCTCCGACTCCACCCCATCGGAGTCACCTAGTGCAG”: 9200 fluorescence intensity (a.u.).
In the case of “CATCACCATCACCCATGTCCAATTATCAACTATGTCGGTTCGGAGTCACCTAGTGCAG” it was 9060 fluorescence intensity (a.u.); in that of “AATTGAAGATGTTTTTGCTGGTATTTTGGTACGTCATCCGCGGAGTCACCTAGTGCAG”, 8560 fluorescence intensity (a.u.).
The same measure for “GAAGCCATATCATCTTAATTGTTTTTAGCTCTTCTCTCATCGGAGTCACCTAGTGCAG”: 10300 fluorescence intensity (a.u.); for “ATCCATAACCCTGACAGGTCTTGTTTTACTTTCTTTTCCACGGAGTCACCTAGTGCAG”: 8150 fluorescence intensity (a.u.).
Turning to “GCGGCGTGTACTGCCTCGCCGTCGACGGCTGCCGCGGGTCCGGAGTCACCTAGTGCAG”, the binding signal was 8220 fluorescence intensity (a.u.).
In the case of “ATTGACATTTTGTTGACAATACCATTATACACTCACATTTCGGAGTCACCTAGTGCAG” it was 8300 fluorescence intensity (a.u.); in that of “TCTTTTGTATAGCACTGTACCGTATACAACACTGAATACACGGAGTCACCTAGTGCAG”, 8080 fluorescence intensity (a.u.); in that of “ACTTTTGACTTTTTACTATTGAGCTCTATCTATTCACTTACGGAGTCACCTAGTGCAG”, 13900 fluorescence intensity (a.u.).
As to “TATCATCACATCTCATTTTCTCCTTCCATCGCAGATATTTCGGAGTCACCTAGTGCAG”, the binding signal is 9500 fluorescence intensity (a.u.).
“TCCTTTCTTTCTTTCTTTCTGTTAGTTCCATTCAAGTATGCGGAGTCACCTAGTGCAG”: the binding signal was 9010 fluorescence intensity (a.u.).
For “TCCCATTGCTTGCTTTCCTCGACACACTCTTCAAAGAGAACGGAGTCACCTAGTGCAG”, the binding signal is 10000 fluorescence intensity (a.u.).
For “TGGTCGTTTTGACTTTCTTCTTGCAATGTTTGATTATTTGCGGAGTCACCTAGTGCAG”, the binding signal is 10100 fluorescence intensity (a.u.).
Take “ATGAAGTTTGGATCGGTGGATGGTTTGGGGAAGTGCGGCACGGAGTCACCTAGTGCAG”: the binding signal was 9320 fluorescence intensity (a.u.).
As to “TATTTGACTAGTCATGCAATATCTCTAGTGACTATACAAGCGGAGTCACCTAGTGCAG”, the binding signal is 11600 fluorescence intensity (a.u.).
The same measure for “TTGCTATGTATGGGTATTGCTCTGTATCATGTGGGTACAACGGAGTCACCTAGTGCAG”: 9970 fluorescence intensity (a.u.).
